# In the supplement of paper PMC10338343:
# ± gives the standard deviation. The list shows a part of the results. Many of these values have a large error.
# Tested on: EfPiwi piRISC loaded with L1MC piRNA (26 nt)
# Experiment: pre-steady-state target cleavage rate (min^-1); guide: L1MC piRNA 5'p-UAACUAAAUACUAUGCAAGCUGUAGG; MIWI and MILI are mouse PIWI proteins and EfPiwi is from a freshwater sponge; tags in brackets are library labels; higher = faster piRNA-guided slicing of the target
# Conditions: auxiliary factor: 500 nM Ephydatia muelleri Gtsf1
# Description: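 Cleave-'n-Seq: a library of target RNAs (target site in constant flanks) at […] was incubated with 1 nM active freshwater sponge Ephydatia fluviatilis Piwi piRISC (synthetic 5'-monophosphorylated piRNA guide) with or without 500 nM EmGtsf1 at 33 °C for 1 min to 16 h. Uncleaved targets were sequenced and the pooled three trials fitted to a burst-and-steady-state model to give the pre-steady-state cleavage rate (min^-1). Sequence is the target site only. Fits with R² ≤ 0 are excluded.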
row,Sequence,pre-steady-state target cleavage rate
1,UCCUGGAUGAGCUUGCAUAGUAUCUAGUUA,0.00844 ± 0.003
2,UCCUGGAUGAGCGUGCAUAGUAUUUAGUUA,0.0239 ± 0.0062
3,UCCUGGAUGUCCUUGCAAUCUAUUUAGUAA,0.000484 ± 0.01
4,UCCUGGAUGUCCUUGCUUAGUAUAUAGUUA,0.000902 ± 0.0065
5,UCCUGCUACAGGAAGCAUAGUAUUUUCAAA,0.00026 ± 0.015
6,UCCUGGAUGUGCUUGCAUAGUAUUAUCAAA,0.00049 ± 0.0046
7,UCCUGGAUGAGCUUGCAUAGUAUUUAUGUUA,0.0018 ± 0.003
8,UCCUCCUUCAGCUUGCAAAGUAUUUAGUUA,0.0828 ± 0.021
9,UCCUGGAACAGCUUGCUAUGUAUUUUCAAA,0.00116 ± 0.0064
10,UCCUGGAUCAGCUUGGAUAGUAUUAAGUUA,0.00195 ± 0.0026
11,UCCUGGAUGUCGAUGCAUAGUUUUUACUUA,0.000209 ± 0.014
12,UCCUGGAUGUCGAUGCAUACUAUAUAGUUA,0.000432 ± 0.013
13,UCCUGGAACAGCUUGCAUAGUAUCUAGUUA,0.0068 ± 0.0027
14,UCCUCCUACAGCUAGCAUUGUAUUUAGUUA,0.0127 ± 0.0042
15,UCCUGGAACAGCUUGCAUAGUAUUUAGUAA,0.00976 ± 0.0038
16,UCCUGCUACAGCUAGCAUAGUAUUUAGAAA,0.00418 ± 0.0021
17,UCCUGCUACAGGAAGCAUAGUAUUUAGAAA,0.00209 ± 0.0022
18,UCCUGGAUCAGCUUGGCAUAGUAUUUAGUUA,0.0127 ± 0.0034
19,UCCUGCUACAGCUUGCAUAGAAUUUAGUUA,0.00582 ± 0.0022
20,UCCUGGAUCAGCUUGCUUACUAUUUAGUUA,0.0032 ± 0.0024
21,UCCUGGAUGAGGUUGCAAAGUAUUUAGUUA,0.00144 ± 0.0032
22,UCCUGGUACUGCUUGGAUAGUAUUUAGUUA,0.00193 ± 0.0052
23,UCCUCCUACAGCAUGCAUAGUAUUUUGUUA,0.00297 ± 0.0021
24,UCCUGGUACAGCUUGCAUUGUAUAUAGUUA,0.00226 ± 0.0033

# Same assay, conditions: auxiliary factor: none (no Gtsf1)
row,Sequence,pre-steady-state target cleavage rate
1,UCCUGGAUGAGCUUGCAUAGUAUCUAGUUA,0.00175 ± 0.0068
2,UCCUGGAUGAGCGUGCAUAGUAUUUAGUUA,0.00176 ± 0.0078
3,UCCUGGAUGUCCUUGCAAUCUAUUUAGUAA,0.000165 ± 0.036
4,UCCUGGAUGUCCUUGCUUAGUAUAUAGUUA,0.000441 ± 0.014
5,UCCUGCUACAGGAAGCAUAGUAUUUUCAAA,0.000195 ± 0.026
6,UCCUGGAUGAGCUUGCAUAGUAUUUAUGUUA,0.00179 ± 0.0071
7,UCCUGGAACAGCUUGCUAUGUAUUUUCAAA,0.00051 ± 0.015
8,UCCUGGAUCAGCUGGCAUAGUAUUUAGUUA,0.000859 ± 0.0098
9,UCCUCCUACAGCUAGCAUUGUAUUUAGUUA,0.000871 ± 0.0072
10,UCCUCCUACAGCUUGCAUACAUUUUAGUAA,0.000314 ± 0.015
11,UCCUGCUACAGCUAGCAUAGUAUUUAGAAA,0.000198 ± 0.037
12,UCCUGCUACAGGAAGCAUAGUAUUUAGAAA,0.000271 ± 0.016
13,UCCUGCUACAGCUUGCAUAGAAUUUAGUUA,0.00101 ± 0.0064
14,UCCUGGAUCAGCUUGCUUACUAUUUAGUUA,0.000359 ± 0.016
15,UCCUGGAUGAGGUUGCAAAGUAUUUAGUUA,0.000638 ± 0.013
16,UCCUCCUACAGCAUGCAUAGUAUUUUGUUA,0.000353 ± 0.012
17,UCCUGGUACAGCUUGCAUUGUAUAUAGUUA,0.000427 ± 0.02
